Source: patent EP1136552A1, “ATP binding cassette transporter 1 (ABC1) gene polymorphisms and uses thereof for the diagnosis and treatment of lipid disorders, cardiovascular diseases and inflammatory diseases” (Bayer Aktiengesellschaft, priority 2000, dated 2001)
Entries after “also recorded” stand apart in the source; their conditions may differ. For at least one compound, name, drawing or mass did not settle the structure.

How the values were obtained:
mononuclear phagocytes [1] = assay: ApoA-I mediated cholesterol efflux from cholesterol-loaded monocytes (14C-cholesterol); format: cell-based, Human; details: forskolin pretreatment, 596A/A and 2589G/G subjects
Method: (§1) Cellular Lipid Efflux. Human peripheral blood cells were isolated from lithium-heparin treated blood samples of adult, healthy volunteers. The peripheral blood mononuclear cell fraction was separated by density gradient centrifugation over Ficoll-Histopaque […] (Sigma). Cells positive for CD2, CD7, CD16, CD19 and CD56 were removed by appropriate magnetic beads (Dynal) leaving > 80% pure monocytes. Isolated monocytes were then cultured at a density of 1.5x10^5 cells/mL in polystyrene culture dishes (100x15mm Petri dish, Falcon) in a serum-free macrophage medium (Macrophage-SFM, Gibco Life Technologies) supplemented with 50ng/mL human recombinant M-CSF (R&D Systems). After an overnight incubation cells were cholesterol loaded for 24 hrs by addition of enzymatically modified LDL (E-LDL; 40 µg/ml), which was prepared as previously described (31). […] Lipids were extracted by liquid extraction according to the method of Bligh and Dyer (13). ^3H and ^14C radioactivities of the total lipid extracts were measured by liquid scintillation counting in order to distinguish between ^3H labeled phospholipids and ^14C-cholesterol. Lipid efflux was calculated as percentage of disintegrations per minute (dpm) in medium divided by the sum of dpm recovered from medium and cells. […]

mononuclear phagocytes [2] = assay: ApoA-I mediated efflux of choline containing phospholipids from monocytes (3H-choline); format: cell-based, Human; details: forskolin pretreatment, 596A/A and 2589G/G subjects
Method: as §1

Structure (SMILES): C=C[C@@]1(C)CC(=O)[C@]2(O)[C@@]3(C)[C@@H](O)CCC(C)(C)[C@@H]3[C@H](O)[C@H](OC(C)=O)[C@@]2(C)O1 [forskolin]
- cholesterol efflux (mononuclear phagocytes [1]): normalized cholesterol efflux; also recorded: able to normalize
- phospholipid efflux (mononuclear phagocytes [2]): abolished the differences between wild type and 596A/A or 2589G/G; also recorded: able to normalize
